Source: the supplement of paper PMC6411743
± gives the standard deviation of the averaged measurements. Only a part is listed here, and it is no random draw.

By UniProt entry, the sequences of proteins in these tests, tags left out. Where a name states a change or a piece, a line headed by the entry shows the natural chain unless it says otherwise.
UniProt Q96RQ3: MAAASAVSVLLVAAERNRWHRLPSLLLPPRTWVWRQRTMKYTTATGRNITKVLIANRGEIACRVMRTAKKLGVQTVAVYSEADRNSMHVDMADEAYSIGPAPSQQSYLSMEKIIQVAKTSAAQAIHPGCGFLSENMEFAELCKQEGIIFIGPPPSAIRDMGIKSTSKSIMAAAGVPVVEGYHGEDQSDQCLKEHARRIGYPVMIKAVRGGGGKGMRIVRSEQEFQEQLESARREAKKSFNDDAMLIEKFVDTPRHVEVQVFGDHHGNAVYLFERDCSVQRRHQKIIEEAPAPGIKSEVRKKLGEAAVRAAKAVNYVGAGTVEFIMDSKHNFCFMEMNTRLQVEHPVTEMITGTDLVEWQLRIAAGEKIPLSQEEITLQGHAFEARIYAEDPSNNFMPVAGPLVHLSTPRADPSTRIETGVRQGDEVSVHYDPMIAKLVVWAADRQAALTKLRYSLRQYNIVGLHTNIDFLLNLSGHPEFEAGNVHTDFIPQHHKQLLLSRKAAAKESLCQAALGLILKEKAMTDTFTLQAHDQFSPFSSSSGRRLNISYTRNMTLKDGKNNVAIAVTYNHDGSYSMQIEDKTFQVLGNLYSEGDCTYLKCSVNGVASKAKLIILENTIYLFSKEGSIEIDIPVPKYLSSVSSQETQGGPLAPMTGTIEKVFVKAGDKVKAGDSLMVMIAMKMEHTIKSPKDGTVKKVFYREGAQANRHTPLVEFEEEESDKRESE
UniProt Q9BPX3, whole entry, looked up: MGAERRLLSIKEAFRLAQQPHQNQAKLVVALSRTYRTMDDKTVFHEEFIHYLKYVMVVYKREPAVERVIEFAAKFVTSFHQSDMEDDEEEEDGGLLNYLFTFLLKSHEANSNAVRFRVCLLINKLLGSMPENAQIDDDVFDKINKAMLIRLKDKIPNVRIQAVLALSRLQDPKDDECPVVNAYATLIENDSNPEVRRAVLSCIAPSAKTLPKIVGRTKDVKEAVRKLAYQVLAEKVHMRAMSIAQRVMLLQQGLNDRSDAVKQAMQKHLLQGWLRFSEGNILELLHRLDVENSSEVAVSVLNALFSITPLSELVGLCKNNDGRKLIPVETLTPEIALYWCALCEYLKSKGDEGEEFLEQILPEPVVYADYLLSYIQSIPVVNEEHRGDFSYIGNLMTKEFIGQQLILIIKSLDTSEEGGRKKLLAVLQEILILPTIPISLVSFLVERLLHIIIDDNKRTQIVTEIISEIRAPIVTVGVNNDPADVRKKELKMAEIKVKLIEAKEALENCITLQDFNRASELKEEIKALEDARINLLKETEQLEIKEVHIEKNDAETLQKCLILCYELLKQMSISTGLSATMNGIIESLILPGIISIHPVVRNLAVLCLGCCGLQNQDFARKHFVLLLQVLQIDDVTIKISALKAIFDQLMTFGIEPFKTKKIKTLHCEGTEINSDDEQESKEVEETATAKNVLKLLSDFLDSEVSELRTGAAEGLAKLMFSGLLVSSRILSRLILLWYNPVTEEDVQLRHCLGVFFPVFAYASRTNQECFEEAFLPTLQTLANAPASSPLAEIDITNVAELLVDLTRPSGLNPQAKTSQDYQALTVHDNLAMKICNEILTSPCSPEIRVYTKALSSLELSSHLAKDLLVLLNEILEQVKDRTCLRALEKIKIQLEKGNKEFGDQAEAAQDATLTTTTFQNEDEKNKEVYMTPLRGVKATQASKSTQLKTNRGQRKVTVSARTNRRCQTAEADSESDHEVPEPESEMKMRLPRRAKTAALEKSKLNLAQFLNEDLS
UniProt Q9BWT6: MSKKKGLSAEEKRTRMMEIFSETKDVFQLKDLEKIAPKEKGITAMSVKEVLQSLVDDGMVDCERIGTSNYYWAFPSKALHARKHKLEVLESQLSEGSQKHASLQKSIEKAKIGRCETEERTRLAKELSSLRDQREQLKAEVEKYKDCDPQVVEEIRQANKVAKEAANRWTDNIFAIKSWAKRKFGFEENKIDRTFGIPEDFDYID
UniProt Q96S94: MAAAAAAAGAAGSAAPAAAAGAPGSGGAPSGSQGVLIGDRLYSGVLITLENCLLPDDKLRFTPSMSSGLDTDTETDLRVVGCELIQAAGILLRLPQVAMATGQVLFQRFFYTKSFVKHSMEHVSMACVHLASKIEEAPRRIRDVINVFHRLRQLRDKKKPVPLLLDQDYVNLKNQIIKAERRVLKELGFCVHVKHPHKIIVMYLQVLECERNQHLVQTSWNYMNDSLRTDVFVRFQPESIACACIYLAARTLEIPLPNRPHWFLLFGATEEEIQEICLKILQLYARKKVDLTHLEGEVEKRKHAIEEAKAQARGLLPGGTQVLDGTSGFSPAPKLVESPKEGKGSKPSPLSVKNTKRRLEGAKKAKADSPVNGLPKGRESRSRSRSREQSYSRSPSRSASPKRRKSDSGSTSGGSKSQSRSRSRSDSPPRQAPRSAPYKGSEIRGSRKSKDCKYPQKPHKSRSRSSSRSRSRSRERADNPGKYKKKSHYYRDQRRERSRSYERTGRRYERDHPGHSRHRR
UniProt Q96S99: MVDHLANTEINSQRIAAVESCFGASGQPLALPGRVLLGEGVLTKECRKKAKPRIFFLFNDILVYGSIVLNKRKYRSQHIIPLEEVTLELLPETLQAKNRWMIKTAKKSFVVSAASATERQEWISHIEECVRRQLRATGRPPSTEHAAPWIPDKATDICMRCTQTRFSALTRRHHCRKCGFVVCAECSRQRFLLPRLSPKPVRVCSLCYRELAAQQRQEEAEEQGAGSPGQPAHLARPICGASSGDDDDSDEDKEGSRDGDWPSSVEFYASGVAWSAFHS
UniProt Q96T58, whole entry: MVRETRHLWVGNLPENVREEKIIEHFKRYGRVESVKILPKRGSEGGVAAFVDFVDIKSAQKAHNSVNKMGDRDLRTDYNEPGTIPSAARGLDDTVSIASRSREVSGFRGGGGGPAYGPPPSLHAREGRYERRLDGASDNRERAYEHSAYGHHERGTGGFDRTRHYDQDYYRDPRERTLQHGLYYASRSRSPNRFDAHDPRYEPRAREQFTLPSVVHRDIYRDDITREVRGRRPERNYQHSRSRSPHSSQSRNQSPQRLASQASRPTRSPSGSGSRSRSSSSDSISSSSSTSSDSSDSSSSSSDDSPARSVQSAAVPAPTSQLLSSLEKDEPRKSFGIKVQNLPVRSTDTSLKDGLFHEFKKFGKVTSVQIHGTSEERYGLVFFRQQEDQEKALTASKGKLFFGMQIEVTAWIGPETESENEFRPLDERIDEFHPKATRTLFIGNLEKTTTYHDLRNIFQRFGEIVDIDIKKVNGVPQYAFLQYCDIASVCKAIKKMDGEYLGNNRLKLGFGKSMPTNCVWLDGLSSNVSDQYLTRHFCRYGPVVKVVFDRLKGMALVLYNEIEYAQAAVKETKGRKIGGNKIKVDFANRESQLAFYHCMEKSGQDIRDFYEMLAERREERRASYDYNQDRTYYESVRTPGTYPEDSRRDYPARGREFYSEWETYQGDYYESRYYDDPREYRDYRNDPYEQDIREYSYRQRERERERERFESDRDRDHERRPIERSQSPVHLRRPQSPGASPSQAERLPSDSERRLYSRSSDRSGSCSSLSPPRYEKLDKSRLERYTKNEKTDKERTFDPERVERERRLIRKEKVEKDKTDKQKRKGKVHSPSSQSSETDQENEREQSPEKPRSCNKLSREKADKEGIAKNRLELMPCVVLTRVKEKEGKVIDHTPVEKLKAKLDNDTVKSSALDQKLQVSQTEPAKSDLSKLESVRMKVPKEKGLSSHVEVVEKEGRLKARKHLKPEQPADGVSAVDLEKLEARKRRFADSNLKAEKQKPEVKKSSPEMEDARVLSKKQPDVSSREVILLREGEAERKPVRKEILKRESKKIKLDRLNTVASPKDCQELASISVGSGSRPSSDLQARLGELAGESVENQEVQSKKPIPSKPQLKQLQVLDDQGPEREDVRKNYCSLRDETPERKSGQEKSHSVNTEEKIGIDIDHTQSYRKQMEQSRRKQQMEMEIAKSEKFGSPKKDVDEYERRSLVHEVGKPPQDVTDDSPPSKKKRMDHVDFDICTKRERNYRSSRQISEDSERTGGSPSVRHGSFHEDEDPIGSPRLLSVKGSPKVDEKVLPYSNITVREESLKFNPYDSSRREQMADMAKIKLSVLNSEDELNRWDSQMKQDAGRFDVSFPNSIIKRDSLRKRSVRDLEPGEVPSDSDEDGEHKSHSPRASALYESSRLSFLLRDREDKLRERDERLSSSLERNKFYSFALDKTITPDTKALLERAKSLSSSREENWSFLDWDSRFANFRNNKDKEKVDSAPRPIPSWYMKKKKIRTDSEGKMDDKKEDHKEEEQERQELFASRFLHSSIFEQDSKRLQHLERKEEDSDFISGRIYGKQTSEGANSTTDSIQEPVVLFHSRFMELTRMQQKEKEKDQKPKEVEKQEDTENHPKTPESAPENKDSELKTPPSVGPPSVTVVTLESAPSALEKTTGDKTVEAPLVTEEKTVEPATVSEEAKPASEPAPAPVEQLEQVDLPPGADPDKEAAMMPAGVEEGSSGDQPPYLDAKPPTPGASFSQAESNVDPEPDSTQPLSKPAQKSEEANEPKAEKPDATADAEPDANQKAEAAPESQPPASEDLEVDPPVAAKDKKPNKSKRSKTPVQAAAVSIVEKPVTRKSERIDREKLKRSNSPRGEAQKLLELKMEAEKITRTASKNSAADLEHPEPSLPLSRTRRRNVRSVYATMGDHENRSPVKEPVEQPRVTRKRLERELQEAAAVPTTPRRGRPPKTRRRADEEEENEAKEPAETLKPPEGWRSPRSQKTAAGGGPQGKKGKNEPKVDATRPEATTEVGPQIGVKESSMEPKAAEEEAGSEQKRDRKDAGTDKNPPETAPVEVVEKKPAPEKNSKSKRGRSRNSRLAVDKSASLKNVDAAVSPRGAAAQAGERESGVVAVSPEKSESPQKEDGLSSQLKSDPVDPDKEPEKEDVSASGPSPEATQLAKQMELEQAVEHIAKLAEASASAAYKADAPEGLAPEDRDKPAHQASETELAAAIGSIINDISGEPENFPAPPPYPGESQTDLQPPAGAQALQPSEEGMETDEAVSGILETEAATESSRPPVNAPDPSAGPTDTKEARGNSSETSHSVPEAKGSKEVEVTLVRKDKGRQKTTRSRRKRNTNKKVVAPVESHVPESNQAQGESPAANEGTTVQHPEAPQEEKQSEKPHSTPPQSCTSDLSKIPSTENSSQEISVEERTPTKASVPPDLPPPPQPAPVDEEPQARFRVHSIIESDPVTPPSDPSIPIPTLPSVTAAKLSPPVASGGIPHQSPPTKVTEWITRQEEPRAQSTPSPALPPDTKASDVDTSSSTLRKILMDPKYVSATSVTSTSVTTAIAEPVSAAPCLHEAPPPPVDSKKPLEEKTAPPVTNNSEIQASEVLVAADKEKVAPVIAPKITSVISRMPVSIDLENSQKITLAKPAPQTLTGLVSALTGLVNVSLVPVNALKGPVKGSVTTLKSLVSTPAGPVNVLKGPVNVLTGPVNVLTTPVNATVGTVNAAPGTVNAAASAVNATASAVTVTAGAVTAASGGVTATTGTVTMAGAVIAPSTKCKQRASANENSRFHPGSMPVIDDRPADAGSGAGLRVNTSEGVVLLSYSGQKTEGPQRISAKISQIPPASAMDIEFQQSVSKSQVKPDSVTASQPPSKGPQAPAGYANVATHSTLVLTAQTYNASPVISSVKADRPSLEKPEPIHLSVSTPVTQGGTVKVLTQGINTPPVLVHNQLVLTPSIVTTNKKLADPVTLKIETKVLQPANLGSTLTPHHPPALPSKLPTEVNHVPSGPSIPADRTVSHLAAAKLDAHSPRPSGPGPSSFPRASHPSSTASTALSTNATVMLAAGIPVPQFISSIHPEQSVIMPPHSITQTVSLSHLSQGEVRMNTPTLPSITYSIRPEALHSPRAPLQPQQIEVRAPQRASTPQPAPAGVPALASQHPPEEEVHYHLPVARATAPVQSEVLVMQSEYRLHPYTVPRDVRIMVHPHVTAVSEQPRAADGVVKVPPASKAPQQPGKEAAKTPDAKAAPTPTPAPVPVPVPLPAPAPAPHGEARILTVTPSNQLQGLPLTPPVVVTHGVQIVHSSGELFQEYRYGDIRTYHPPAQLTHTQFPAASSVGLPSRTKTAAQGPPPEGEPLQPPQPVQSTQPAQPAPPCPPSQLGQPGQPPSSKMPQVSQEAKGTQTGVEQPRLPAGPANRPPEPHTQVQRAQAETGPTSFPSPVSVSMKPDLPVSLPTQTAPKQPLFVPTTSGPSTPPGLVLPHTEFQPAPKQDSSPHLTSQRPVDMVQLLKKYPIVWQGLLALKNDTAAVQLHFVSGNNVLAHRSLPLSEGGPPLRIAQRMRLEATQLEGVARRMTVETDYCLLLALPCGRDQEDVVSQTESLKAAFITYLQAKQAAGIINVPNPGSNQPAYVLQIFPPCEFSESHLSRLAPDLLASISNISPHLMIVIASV

Compound: Nc1ncnc2c1ncn2[C@@H]1O[C@H](COP(=O)(O)OP(=O)(O)NP(=O)(O)O)[C@@H](O)[C@H]1O [adenylyl imidodiphosphate]
Assay: NP40-soluble protein abundance relative to vehicle (solubility fold change) (ratio); higher = more soluble protein in presence of AMP-PNP
Outline: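 Across three independent experiments, values are fold changes against the detergent-processed vehicle for each replicate, based on vsn-normalised intensities. The samples were Jurkat crude lysate treated with eight concentrations (0.1 to 10 mM) for 10 min at room temperature and then 3 min at 37 °C. Lysate was solubilised with 0.8% NP40 and benzonase, ultracentrifuged, and the supernatant analysed by TMT-labelled LC-MS/MS.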

| Target | NP40-soluble protein abundance (concentration: 1mM) | NP40-soluble protein abundance (concentration: 2mM) | NP40-soluble protein abundance (concentration: 4mM) | NP40-soluble protein abundance (concentration: 6mM) | NP40-soluble protein abundance (concentration: 8mM) | NP40-soluble protein abundance (concentration: 10mM) |
| --- | --- | --- | --- | --- | --- | --- |
| UniProt Q96RQ3 and related entries | 0.971 ± 0.034 | 0.928 ± 0.08 | 0.961 ± 0.058 | 0.934 ± 0.079 | 0.931 ± 0.081 | 0.92 ± 0.11 |
| PECR (UniProt Q9BY49) | 1.08 ± 0.016 | 1.07 ± 0.027 | 1.09 ± 0.028 | 1.09 ± 0.015 | 1.07 ± 0.028 | 1.12 ± 0.018 |
| NCAPG (UniProt Q9BPX3) | 0.983 ± 0.019 | 0.946 ± 0.019 | 0.975 ± 0.019 | 0.947 ± 0.034 | 0.952 ± 0.036 | 0.956 ± 0.035 |
| CPPED1 (UniProt Q9BRF8) | 0.979 ± 0.049 | 0.932 ± 0.057 | 0.982 ± 0.02 | 0.976 ± 0.028 | 0.986 ± 0.043 | 0.938 ± 0.039 |
| CCT7 (UniProt Q99832) | 0.936 ± 0.056 | 0.906 ± 0.052 | 0.907 ± 0.092 | 0.96 ± 0.065 | 0.946 ± 0.092 | 0.963 ± 0.18 |
| UniProt Q96SN8 and related entries | 1.01 ± 0.053 | 1.044 ± 0.0032 | 1 ± 0.049 | 0.96 ± 0.067 | 0.928 ± 0.023 | 0.947 ± 0.055 |
| MND1 (UniProt Q9BWT6) | 0.958 ± 0.034 | 1.05 ± 0.067 | 0.989 ± 0.036 | 0.966 ± 0.039 | 0.98 ± 0.023 | 0.936 ± 0.063 |
| CCNL2 (UniProt Q96S94) | 1 ± 0.046 | 1.05 ± 0.062 | 1.01 ± 0.012 | 1.02 ± 0.026 | 1.02 ± 0.023 | 1.01 ± 0.015 |
| UniProt Q96TC7 | 0.993 ± 0.038 | 0.993 ± 0.035 | 0.992 ± 0.072 | 0.967 ± 0.072 | 0.944 ± 0.032 | 0.964 ± 0.041 |
| PIGS (UniProt Q96S52) | 0.9764 ± 0.0075 | 0.971 ± 0.021 | 0.983 ± 0.0063 | 0.987 ± 0.025 | 0.973 ± 0.03 | 0.992 ± 0.023 |
| DDA1 (UniProt Q9BW61) | 1.046 ± 0.0013 | 1.05 ± 0.049 | 1.022 ± 0.008 | 0.986 ± 0.013 | 0.972 ± 0.01 | 0.961 ± 0.015 |
| PLEKHF1 (UniProt Q96S99) | 0.93 ± 0.0023 | 0.938 ± 0.032 | 0.947 ± 0.05 | 0.986 ± 0.088 | 0.9985 ± 0.0049 | 1.004 ± 0.0072 |
| SIKE1 (UniProt Q9BRV8) | 1.02 ± 0.021 | 1.05 ± 0.014 | 1.01 ± 0.012 | 0.982 ± 0.0015 | 1.008 ± 0.01 | 1.02 ± 0.033 |
| UniProt Q9BSI4 and related entries | 1.04 ± 0.017 | 1.04 ± 0.034 | 1.08 ± 0.049 | 1.09 ± 0.073 | 1.062 ± 0.0072 | 1.07 ± 0.068 |
| UniProt Q96S66 and related entries | 0.987 ± 0.028 | 1.01 ± 0.048 | 0.98 ± 0.03 | 1 ± 0.015 | 0.987 ± 0.059 | 1 ± 0.048 |
| UniProt Q9BY12 and related entries | 1.02 ± 0.028 | 1.02 ± 0.045 | 1.04 ± 0.05 | 1.07 ± 0.06 | 1.09 ± 0.08 | 1.09 ± 0.084 |
| SPEN (UniProt Q96T58) | 1.09 ± 0.033 | 1.18 ± 0.087 | 1.18 ± 0.065 | 1.21 ± 0.089 | 1.21 ± 0.11 | 1.3 ± 0.1 |
| RANBP9 (UniProt Q96S59) | 0.968 ± 0.061 | 0.971 ± 0.035 | 0.968 ± 0.069 | 0.978 ± 0.076 | 0.931 ± 0.057 | 0.968 ± 0.084 |

3 neighbouring entries already listed:

| Target | NP40-soluble protein abundance (concentration: 1mM) | NP40-soluble protein abundance (concentration: 2mM) | NP40-soluble protein abundance (concentration: 4mM) | NP40-soluble protein abundance (concentration: 6mM) | NP40-soluble protein abundance (concentration: 8mM) | NP40-soluble protein abundance (concentration: 10mM) |
| --- | --- | --- | --- | --- | --- | --- |
| PIGS (UniProt Q96S52) | 0.9764 ± 0.0075 | 0.971 ± 0.021 | 0.983 ± 0.0063 | 0.987 ± 0.025 | 0.973 ± 0.03 | 0.992 ± 0.023 |
| DDA1 (UniProt Q9BW61) | 1.046 ± 0.0013 | 1.05 ± 0.049 | 1.022 ± 0.008 | 0.986 ± 0.013 | 0.972 ± 0.01 | 0.961 ± 0.015 |
| PLEKHF1 (UniProt Q96S99) | 0.93 ± 0.0023 | 0.938 ± 0.032 | 0.947 ± 0.05 | 0.986 ± 0.088 | 0.9985 ± 0.0049 | 1.004 ± 0.0072 |
